Results are given in words; binding and its absence hold for the method and conditions named. Binding seen in cells or lysates may run through a third protein. Some binding calls cover weakened binding; strength is not graded here.

Protein sequences, listed by entry. Tags and fused reporters are not part of them. Lines headed by an entry give the natural chain unless they say otherwise; changes in a name come on top.
UniProt P19447: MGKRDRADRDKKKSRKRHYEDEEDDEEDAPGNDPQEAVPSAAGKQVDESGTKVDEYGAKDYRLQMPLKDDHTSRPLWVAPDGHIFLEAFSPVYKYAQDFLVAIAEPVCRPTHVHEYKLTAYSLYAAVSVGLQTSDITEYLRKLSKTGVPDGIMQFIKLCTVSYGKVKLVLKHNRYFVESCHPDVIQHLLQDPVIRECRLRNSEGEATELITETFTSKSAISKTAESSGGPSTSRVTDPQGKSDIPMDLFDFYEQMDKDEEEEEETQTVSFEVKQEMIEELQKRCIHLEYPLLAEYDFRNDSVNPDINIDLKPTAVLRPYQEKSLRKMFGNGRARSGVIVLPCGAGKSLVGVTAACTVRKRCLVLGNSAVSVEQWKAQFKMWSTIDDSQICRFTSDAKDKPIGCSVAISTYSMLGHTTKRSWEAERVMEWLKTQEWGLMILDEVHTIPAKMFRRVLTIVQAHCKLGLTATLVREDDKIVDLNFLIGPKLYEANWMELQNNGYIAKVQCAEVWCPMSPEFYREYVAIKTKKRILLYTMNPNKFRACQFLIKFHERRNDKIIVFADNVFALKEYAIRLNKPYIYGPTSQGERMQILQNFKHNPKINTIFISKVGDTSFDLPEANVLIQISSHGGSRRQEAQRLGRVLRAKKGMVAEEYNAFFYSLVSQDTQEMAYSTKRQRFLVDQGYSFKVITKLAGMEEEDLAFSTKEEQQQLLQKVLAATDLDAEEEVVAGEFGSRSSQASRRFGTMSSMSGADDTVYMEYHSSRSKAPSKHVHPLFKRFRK

The target in test [1] is XPB protein, full length, in vitro-translated, 35S-labelled (human) (UniProt P19447). Description: competition pull-down, FIG. 4.
Test [2] has the same target. Description: competition pull-down; peptide pre-incubated with GST-p53-WT beads (85 and 424 nM).
Test [3] deals with GST-p53-WT (glutathione S-transferase fused to human wild type p53) (human) (UniProt P04637). As to the kind of experiment: competition pull-down, FIG. 4.
For test [4] the target is unchanged. Description: competition pull-down; peptide pre-incubated with GST-p53-WT beads (12, 120, 596 nM).

SHLKSKKGQSTSRHKKLMFKT [Peptide #p53cp (residues 367 to 387 of p53)]: the binding result in test [1] and in test [2] was “binds” each time.

In the case of LGLTATLVREDDKIV [Peptide #464 (residues 464 to 478 of XPB)], the binding result in test [3] and in test [4] was “binds” throughout.
